{
  "sequences": {"note": "The chains behind the UniProt entries cited, without tags or fusion partners. Where a name states a change or a piece, a line headed by the entry shows the natural chain unless it says otherwise.", "UniProt Q9HCP0": "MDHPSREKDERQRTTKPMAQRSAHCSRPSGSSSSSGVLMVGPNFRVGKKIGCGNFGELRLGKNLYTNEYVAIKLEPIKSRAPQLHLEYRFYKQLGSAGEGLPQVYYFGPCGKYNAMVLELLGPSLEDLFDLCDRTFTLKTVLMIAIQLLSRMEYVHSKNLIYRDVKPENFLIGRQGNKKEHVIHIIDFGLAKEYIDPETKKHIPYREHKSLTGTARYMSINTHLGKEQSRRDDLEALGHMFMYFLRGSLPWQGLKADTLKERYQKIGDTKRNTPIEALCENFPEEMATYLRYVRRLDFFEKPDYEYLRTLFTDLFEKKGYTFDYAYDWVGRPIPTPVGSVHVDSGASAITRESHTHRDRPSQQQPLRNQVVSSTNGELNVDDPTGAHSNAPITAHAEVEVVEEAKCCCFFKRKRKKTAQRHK", "UniProt P68400": "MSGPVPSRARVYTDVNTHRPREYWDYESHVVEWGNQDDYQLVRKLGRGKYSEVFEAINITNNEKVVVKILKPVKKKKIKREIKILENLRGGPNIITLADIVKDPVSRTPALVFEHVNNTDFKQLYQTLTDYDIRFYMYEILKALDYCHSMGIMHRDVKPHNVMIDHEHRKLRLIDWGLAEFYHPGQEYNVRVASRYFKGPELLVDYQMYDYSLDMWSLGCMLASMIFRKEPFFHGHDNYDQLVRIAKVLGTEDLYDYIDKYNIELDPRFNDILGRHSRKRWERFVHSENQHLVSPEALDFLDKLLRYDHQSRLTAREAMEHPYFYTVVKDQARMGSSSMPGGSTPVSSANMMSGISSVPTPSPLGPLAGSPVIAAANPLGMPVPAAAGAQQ"},
  "source": "paper PMC5996148",
  "assay_in_all_cases": "protein microarray (ProtoArray v5.0), streptavidin-Alexa Fluor 647",
  "settings_in_all_cases": "3'-biotin; 20 mM Tris (pH 7.5), 5 mM MgCl2, 100 mM KCl, 0.1% Tween-20, A/T-rich and random oligonucleotide blockers; temperature not stated; high values mean tight binding",
  "key": {"[1]": {"test_system": "CRYBA1 (human)"}, "[2]": {"test_system": "CSF1 (human)"}, "[3]": {"molecular_target": "CSNK1G1 (UniProt Q9HCP0)"}, "[4]": {"molecular_target": "CSNK2A1 (UniProt P68400)"}, "[5]": {"test_system": "CTBP1 (human)"}, "[6]": {"test_system": "CTNNB1 (human)"}, "[7]": {"test_system": "CYB5B (human)"}, "[8]": {"test_system": "CYFIP2 (human)"}, "[9]": {"molecular_target": "T1, CYP1A1 (UniProt P04798)", "T1 sequence": "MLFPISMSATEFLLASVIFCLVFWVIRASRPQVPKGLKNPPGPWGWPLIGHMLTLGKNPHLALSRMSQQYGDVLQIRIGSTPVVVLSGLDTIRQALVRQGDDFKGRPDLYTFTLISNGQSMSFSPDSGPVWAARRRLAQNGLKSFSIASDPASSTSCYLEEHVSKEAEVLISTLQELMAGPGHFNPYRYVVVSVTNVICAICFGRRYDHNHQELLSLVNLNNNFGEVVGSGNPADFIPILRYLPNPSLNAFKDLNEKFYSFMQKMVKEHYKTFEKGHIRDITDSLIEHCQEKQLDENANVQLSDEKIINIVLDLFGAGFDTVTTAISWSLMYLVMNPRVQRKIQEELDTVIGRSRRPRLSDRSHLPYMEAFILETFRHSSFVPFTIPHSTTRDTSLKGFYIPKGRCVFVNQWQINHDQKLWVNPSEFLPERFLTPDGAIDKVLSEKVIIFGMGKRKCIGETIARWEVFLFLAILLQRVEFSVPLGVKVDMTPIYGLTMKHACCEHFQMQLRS"}, "[10]": {"test_system": "CYP20A1 (human)"}, "[11]": {"test_system": "CYP4F11 (human)"}, "[12]": {"test_system": "CYTL1 (human)"}, "[13]": {"test_system": "Calcium-binding protein 39-like (human)"}, "[14]": {"test_system": "Calcium/calmodulin-dependent protein kinase type 1 (human)"}, "[15]": {"test_system": "Calcium/calmodulin-dependent protein kinase type 1B (human)"}, "[16]": {"test_system": "Calcyclin-binding protein (human)"}, "[17]": {"test_system": "Calpastatin (human)"}, "[18]": {"test_system": "Calretinin (human)"}, "[19]": {"test_system": "Carboxypeptidase A2 (human)"}, "[20]": {"test_system": "Casein kinase I isoform gamma-2 (human)"}},
  "note": "Several values for one entry are separate records, joined by “and”; a condition that tells them apart may be missing. Equal values may be shown once. This is one part of the list. For some assays here: The exact form of the protein is not confirmed.",
  "data": [
    {"sequence": "GGGGACAGGGGTATGGGGAGGGG [G4-3 biotinylated (CtG)]", "values": [
      {"measurement": "binding signal", "setting": "[1]", "result": -0.328, "unit": "z-score"},
      {"measurement": "binding signal", "setting": "[2]", "result": -0.331, "unit": "z-score"},
      {"measurement": "binding signal", "setting": "[3]", "result": 6.52, "unit": "z-score"},
      {"measurement": "binding signal", "setting": "[4]", "result": 5.58, "unit": "z-score"},
      {"measurement": "binding signal", "setting": "[5]", "result": "-0.325 z-score and -0.337 z-score"},
      {"measurement": "binding signal", "setting": "[6]", "result": -0.341, "unit": "z-score"},
      {"measurement": "binding signal", "setting": "[7]", "result": -0.313, "unit": "z-score"},
      {"measurement": "binding signal", "setting": "[8]", "result": -0.348, "unit": "z-score"},
      {"measurement": "binding signal", "setting": "[9]", "result": -0.322, "unit": "z-score"},
      {"measurement": "binding signal", "setting": "[10]", "result": -0.299, "unit": "z-score"},
      {"measurement": "binding signal", "setting": "[11]", "result": -0.317, "unit": "z-score"},
      {"measurement": "binding signal", "setting": "[12]", "result": -0.322, "unit": "z-score"},
      {"measurement": "binding signal", "setting": "[13]", "result": -0.34, "unit": "z-score"},
      {"measurement": "binding signal", "setting": "[14]", "result": -0.339, "unit": "z-score"},
      {"measurement": "binding signal", "setting": "[15]", "result": -0.319, "unit": "z-score"},
      {"measurement": "binding signal", "setting": "[16]", "result": 3.68, "unit": "z-score"},
      {"measurement": "binding signal", "setting": "[17]", "result": -0.32, "unit": "z-score"},
      {"measurement": "binding signal", "setting": "[18]", "result": -0.322, "unit": "z-score"},
      {"measurement": "binding signal", "setting": "[19]", "result": -0.312, "unit": "z-score"},
      {"measurement": "binding signal", "setting": "[20]", "result": 4.6, "unit": "z-score"}
    ]}
  ]
}
